The record followed here is publication PMC4581162.

Assay [1] addresses T1, Promyelocytic leukemia zinc finger protein (PLZF), endogenous in KG1a cells (human (endogenous in KG1a)), Q05516.
T1 chain: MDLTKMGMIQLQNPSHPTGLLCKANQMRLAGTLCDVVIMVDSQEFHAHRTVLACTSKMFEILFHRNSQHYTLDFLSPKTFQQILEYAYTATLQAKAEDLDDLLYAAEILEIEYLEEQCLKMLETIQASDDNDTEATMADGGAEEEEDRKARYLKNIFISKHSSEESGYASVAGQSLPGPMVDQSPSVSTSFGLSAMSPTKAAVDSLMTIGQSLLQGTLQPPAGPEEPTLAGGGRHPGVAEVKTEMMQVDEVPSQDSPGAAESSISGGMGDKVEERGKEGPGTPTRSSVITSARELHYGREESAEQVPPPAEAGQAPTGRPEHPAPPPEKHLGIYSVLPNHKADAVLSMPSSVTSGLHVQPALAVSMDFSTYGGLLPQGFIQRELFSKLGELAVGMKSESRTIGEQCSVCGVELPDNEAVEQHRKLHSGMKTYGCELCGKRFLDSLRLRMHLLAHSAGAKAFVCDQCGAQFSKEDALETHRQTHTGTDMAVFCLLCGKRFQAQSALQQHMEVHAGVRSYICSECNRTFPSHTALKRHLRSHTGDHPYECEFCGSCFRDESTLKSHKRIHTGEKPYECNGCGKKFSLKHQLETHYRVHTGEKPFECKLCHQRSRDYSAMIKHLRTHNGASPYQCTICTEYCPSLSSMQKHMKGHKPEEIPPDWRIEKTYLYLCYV
In words: co-IP; endogenous proteins from KG1a whole cell lysates (1 % NP40, 150 mM NaCl, 20 mM Tris pH 8.0); precipitated with anti-PLZF, anti-HDAC3 or anti-SIRT1 antibody for 16 h at 4 °C, protein A agarose; immunoblot. The conditions noted are these: remark: other sources report otherwise. In general terms: A western blot detects proteins with antibodies after separation by electrophoresis.

For assay [2], the target named is T2, GST-PLZF, full-length PLZF, Q05516.
T2 chain: T1 chain
Nature of the assay: pull-down; GST fusions of PLZF incubated with 35S-labeled in vitro translated HDAC3; only the target purified. The conditions noted are these: remark: other sources report otherwise.

No constants are given. Whether binding was seen depends on the method and setting. In cells and extracts the contact can be indirect. Some results given as binding are weak or reduced against the parent protein; the word gives no strength. Where a sequence is shown, tags or fusion partners need not be part of it.

B1: Histone deacetylase 3 (HDAC3), endogenous in KG1a cells, O15379 1-428 (enzyme)
chain: MAKTVAYFYDPDVGNFHYGAGHPMKPHRLALTHSLVLHYGLYKKMIVFKPYQASQHDMCRFHSEDYIDFLQRVSPTNMQGFTKSLNAFNVGDDCPVFPGLFEFCSRYTGASLQGATQLNNKICDIAINWAGGLHHAKKFEASGFCYVNDIVIGILELLKYHPRVLYIDIDIHHGDGVQEAFYLTDRVMTVSFHKYGNYFFPGTGDMYEVGAESGRYYCLNVPLRDGIDDQSYKHLFQPVINQVVDFYQPTCIVLQCGADSLGCDRLGCFNLSIRGHGECVEYVKSFNIPLLVLGGGGYTVRNVARCWTYETSLLVEEAISEELPYSEYFEYFAPDFTLHPDVSTRIENQNSRQYLDQIRQTIFENLKMLNHAPSVQIHDVPADLLTYDRTDEADAEERGPEENYSRPEAPNEFYDGDHDNDKESDVEI
On to B1, for which the binding result in assay [1] is recorded as “binds”.

B2: 35S-labeled HDAC3, in vitro translated, O15379 1-428 (enzyme)
chain: B1 chain
modifications: here or on the partner: [35S]methionine-labeled
In the case of B2, the binding result in assay [2] is “binds”.
